Some of the results follow.
Compound: C[C@H](Nc1ncnc2nc[nH]c12)c1cc2cccc(Cl)c2c(=O)n1-c1ccccc1 [duvelisib]
Assay: log2 fold change, soluble protein after heating vs DMSO (PISA); higher = thermal stabilisation; K562 lysate, 10 uM; active = over 0.2 and 3.5 SD of the protein, either way, in both replicates (recomputed)
Method in brief: (§1)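 A 30 min treatment with 10 μM compound was applied to crude K562 extract at 1 mg/mL protein in PBS pH 7.4 with 1 mM MgCl2. Heating for 3 min spanned 48°C-58°C, after which aliquots were pooled, adjusted to 0.5% NP-40 at 4°C and spun at 21,000xg for 90 min. TMTpro 16plex LC-MS/MS of the supernatant, with channel sums equalised, gave values recorded as log-two fold change in thermal stability against solvent controls, from duplicates.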

Chains of the proteins cited; added tags and fusions are not shown. Lines headed by an entry give the natural chain unless they say otherwise; changes in a name come on top.
UniProt O00189: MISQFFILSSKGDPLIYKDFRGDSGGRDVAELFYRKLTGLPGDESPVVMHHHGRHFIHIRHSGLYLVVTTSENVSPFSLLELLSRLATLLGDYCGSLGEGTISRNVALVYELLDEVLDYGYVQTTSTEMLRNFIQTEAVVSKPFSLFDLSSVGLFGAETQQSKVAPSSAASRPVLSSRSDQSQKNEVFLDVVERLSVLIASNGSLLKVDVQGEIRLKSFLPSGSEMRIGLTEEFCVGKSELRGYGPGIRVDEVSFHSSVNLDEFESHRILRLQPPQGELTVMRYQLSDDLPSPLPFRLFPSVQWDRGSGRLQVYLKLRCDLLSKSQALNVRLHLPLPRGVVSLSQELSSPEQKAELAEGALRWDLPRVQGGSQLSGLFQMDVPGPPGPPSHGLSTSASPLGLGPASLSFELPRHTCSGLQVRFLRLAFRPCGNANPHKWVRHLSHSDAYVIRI
UniProt Q86XL3: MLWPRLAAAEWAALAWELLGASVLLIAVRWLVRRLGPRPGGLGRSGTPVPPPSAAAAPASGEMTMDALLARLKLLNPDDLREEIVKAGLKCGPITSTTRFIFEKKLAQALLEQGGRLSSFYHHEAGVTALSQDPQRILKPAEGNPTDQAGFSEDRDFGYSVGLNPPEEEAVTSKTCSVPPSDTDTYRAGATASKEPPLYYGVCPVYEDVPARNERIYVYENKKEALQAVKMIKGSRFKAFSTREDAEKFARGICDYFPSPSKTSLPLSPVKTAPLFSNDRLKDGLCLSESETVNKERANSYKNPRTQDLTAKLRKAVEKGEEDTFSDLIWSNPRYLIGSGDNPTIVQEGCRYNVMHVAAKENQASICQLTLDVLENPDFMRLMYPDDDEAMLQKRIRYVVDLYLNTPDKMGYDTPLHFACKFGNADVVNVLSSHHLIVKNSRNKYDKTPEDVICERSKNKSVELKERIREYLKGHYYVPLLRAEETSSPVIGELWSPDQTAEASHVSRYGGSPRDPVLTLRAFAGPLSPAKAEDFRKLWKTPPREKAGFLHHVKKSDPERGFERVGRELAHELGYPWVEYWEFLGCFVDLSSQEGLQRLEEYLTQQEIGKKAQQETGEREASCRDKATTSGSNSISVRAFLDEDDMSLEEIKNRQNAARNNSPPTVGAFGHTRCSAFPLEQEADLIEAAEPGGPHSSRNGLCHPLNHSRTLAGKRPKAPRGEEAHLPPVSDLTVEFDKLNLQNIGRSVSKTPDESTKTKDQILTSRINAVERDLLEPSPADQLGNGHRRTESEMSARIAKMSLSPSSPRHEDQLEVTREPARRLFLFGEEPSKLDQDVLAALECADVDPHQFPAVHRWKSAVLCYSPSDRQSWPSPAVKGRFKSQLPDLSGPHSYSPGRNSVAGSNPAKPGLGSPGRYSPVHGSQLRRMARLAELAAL
UniProt P30838: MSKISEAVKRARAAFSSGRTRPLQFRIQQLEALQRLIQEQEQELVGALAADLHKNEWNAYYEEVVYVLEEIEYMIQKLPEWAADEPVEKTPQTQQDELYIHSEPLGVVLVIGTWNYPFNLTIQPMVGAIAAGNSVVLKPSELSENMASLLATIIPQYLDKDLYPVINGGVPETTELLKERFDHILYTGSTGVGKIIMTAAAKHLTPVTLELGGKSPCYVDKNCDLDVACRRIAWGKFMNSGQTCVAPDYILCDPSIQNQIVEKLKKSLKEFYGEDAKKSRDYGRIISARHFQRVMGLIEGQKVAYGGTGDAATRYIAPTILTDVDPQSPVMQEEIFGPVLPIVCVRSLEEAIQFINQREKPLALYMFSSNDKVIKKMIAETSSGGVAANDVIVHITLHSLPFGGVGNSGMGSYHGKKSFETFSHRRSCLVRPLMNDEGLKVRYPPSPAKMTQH
UniProt Q86W34: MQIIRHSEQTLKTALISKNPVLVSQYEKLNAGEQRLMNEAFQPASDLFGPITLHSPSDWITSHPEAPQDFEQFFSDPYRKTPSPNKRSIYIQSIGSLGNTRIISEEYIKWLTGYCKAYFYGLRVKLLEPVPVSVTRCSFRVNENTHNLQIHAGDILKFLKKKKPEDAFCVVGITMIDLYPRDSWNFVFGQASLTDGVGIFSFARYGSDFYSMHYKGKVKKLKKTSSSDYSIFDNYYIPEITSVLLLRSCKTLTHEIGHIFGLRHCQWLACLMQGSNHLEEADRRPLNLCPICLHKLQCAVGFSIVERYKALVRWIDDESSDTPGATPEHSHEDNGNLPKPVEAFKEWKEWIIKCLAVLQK
UniProt Q9BV10: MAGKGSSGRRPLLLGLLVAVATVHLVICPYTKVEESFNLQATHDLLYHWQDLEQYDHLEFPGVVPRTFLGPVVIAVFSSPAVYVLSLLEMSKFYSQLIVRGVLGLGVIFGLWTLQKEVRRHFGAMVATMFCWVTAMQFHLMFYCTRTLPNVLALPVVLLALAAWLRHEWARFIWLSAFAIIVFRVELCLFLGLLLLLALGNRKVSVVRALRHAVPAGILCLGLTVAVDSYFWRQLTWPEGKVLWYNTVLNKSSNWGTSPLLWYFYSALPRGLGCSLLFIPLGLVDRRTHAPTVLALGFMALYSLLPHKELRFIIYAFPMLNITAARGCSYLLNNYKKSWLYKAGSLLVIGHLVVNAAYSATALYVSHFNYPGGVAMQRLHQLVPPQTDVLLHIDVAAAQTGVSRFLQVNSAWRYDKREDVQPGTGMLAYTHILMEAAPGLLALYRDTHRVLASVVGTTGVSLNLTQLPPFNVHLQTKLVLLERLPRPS
UniProt Q9H8T0: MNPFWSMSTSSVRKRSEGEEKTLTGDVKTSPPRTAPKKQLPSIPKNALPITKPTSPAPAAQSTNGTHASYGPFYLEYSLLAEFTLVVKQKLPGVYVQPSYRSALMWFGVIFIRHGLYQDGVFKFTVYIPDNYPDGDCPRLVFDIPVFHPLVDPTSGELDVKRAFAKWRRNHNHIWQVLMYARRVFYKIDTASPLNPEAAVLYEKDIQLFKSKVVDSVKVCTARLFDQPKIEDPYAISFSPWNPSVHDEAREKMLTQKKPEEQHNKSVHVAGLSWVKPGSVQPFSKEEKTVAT
UniProt Q6AI12: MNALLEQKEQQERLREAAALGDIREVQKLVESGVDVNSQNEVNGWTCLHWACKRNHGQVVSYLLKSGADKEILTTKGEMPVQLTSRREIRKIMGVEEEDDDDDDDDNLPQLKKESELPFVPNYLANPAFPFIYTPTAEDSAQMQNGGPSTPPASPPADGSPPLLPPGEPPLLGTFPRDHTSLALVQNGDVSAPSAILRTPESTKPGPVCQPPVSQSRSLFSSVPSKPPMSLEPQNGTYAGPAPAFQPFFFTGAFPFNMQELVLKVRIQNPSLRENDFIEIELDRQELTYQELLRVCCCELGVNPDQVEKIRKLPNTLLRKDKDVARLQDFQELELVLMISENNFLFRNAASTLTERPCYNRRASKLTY
UniProt P13196: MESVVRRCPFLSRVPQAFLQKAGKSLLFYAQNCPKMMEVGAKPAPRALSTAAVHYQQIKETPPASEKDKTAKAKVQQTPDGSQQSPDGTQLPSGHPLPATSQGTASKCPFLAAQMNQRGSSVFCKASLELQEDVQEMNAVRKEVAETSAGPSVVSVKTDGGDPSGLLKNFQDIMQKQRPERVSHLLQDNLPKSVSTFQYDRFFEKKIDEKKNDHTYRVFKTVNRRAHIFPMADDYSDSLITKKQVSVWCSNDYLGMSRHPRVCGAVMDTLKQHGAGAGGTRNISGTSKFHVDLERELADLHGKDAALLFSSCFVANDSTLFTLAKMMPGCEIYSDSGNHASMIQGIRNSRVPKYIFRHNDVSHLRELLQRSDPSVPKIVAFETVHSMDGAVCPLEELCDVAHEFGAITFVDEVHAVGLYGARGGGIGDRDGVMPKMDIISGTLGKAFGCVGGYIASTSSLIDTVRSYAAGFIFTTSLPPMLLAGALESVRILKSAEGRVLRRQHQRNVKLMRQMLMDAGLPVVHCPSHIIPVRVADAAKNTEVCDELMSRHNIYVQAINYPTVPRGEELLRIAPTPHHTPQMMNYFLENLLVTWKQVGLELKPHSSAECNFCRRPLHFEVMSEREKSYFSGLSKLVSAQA
UniProt Q96PC3: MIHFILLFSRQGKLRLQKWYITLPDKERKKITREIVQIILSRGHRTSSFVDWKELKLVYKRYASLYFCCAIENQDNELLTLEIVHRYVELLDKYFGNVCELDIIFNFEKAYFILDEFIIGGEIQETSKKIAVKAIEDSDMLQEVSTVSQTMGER
UniProt P53677: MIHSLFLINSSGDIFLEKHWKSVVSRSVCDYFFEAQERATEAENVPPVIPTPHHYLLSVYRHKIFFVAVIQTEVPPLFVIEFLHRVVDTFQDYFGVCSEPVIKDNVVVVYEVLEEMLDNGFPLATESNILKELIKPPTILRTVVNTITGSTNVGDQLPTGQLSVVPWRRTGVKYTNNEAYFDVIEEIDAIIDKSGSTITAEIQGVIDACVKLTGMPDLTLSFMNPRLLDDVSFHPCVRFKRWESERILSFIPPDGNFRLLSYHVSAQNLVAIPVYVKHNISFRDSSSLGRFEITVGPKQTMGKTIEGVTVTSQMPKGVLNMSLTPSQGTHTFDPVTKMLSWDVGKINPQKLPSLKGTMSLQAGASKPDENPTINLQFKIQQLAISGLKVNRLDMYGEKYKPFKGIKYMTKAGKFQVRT
UniProt Q63HQ0: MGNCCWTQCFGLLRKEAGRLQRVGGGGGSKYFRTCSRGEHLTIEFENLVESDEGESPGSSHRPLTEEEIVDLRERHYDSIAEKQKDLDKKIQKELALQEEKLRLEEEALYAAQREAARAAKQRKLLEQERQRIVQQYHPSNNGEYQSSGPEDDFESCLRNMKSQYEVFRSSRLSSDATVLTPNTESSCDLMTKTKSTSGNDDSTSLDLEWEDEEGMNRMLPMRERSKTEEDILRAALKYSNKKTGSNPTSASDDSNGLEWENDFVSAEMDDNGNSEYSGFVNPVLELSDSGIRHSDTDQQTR
UniProt P56377: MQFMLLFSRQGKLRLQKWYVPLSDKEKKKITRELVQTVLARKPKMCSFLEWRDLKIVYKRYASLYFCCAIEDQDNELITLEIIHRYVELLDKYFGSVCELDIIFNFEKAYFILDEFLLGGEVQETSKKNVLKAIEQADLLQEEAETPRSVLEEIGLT
UniProt Q9ULJ7: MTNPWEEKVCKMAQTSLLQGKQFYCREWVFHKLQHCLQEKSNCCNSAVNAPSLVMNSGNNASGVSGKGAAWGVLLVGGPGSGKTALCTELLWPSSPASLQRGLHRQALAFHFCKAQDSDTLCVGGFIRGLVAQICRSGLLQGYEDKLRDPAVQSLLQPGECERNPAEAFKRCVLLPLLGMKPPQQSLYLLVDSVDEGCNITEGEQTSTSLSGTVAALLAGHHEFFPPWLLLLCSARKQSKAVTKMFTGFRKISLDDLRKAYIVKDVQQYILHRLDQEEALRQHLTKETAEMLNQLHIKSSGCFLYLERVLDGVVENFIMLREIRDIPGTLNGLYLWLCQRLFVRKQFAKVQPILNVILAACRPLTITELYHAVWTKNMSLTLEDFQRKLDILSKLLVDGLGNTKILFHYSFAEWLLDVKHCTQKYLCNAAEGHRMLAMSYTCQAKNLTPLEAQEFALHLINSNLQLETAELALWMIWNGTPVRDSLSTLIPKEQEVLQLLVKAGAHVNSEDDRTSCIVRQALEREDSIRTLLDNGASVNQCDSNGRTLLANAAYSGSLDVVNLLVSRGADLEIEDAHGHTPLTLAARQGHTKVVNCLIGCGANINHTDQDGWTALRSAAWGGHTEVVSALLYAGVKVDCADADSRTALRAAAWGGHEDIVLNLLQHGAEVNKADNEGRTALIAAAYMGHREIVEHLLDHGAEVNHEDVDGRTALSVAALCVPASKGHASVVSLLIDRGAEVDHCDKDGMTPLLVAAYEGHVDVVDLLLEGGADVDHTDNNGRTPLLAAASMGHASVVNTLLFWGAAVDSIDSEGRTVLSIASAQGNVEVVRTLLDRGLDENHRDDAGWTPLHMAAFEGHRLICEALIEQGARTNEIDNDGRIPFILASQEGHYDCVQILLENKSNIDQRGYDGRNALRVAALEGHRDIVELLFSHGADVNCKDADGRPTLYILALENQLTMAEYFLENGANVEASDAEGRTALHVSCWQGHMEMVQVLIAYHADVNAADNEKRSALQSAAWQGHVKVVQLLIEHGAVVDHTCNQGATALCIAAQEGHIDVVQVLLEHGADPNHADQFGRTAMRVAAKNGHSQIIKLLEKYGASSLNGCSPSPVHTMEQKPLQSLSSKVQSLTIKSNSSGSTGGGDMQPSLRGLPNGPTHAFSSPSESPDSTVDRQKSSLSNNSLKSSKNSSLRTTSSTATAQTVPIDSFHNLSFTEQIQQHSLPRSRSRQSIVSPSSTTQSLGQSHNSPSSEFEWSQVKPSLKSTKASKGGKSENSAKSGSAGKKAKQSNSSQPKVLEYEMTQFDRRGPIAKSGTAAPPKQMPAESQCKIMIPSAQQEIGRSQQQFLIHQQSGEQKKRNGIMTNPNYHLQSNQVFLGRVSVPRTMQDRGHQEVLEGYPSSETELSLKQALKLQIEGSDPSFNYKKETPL

Target | log2 fold change
ANKRD13B (UniProt Q86YJ7) | inactive: 0.06
AP4M1 (UniProt O00189) | inactive: 0.117
ANKRD30B (UniProt Q9BXX2) | inactive: 0.087
ANXA6 (UniProt E5RK69) | inactive: 0.031
AMBRA1 isoform 5 (UniProt Q9C0C7) | inactive: -0.062
ANKLE2 (UniProt Q86XL3) | inactive: 0.001
ALDH3A1 (UniProt P30838) | inactive: -0.061
AMZ2 (UniProt Q86W34) | inactive: 0.106
ALG12 (UniProt Q9BV10) | inactive: 0.071
AKTIP isoform 2 (UniProt Q9H8T0) | inactive: -0.148
ANKRD40 (UniProt Q6AI12) | inactive: -0.171
ALAS1 (UniProt P13196) | inactive: -0.369
AP1S3 isoform 4 (UniProt Q96PC3) | inactive: -0.135
AP3M2 (UniProt P53677) | inactive: 0.014
ANKRD31 (UniProt Q8N7Z5) | inactive: 0.008
ANKHD1 (UniProt D6RHC4) | inactive: 0.153
ANAPC16 (UniProt Q96DE5) | inactive: -0.002

Compound: Cc1cc(Nc2cc(CN3CCOCC3)c3nc(C)c(Cc4ccc(Cl)cc4F)n3n2)n[nH]1 [gandotinib]
Assay: as above
Method in brief: as §1

Target | log2 fold change
AP4M1 (UniProt O00189) | inactive: -0.044
ANKRD30B (UniProt Q9BXX2) | inactive: 0.337
AMBRA1 isoform 5 (UniProt Q9C0C7) | inactive: 0.007
ANKLE2 (UniProt Q86XL3) | inactive: -0.131
ALDH3A1 (UniProt P30838) | inactive: 0.569
AP1AR (UniProt Q63HQ0) | inactive: -0.046
ALG12 (UniProt Q9BV10) | inactive: 0.07
ALDOA (UniProt H3BPS8) | inactive: 0.074
ANKRD40 (UniProt Q6AI12) | inactive: -0.032
ALAS1 (UniProt P13196) | inactive: 0.002
AP1S2 (UniProt P56377) | inactive: 0.302
AP1S3 isoform 4 (UniProt Q96PC3) | inactive: 0.024
AP3M2 (UniProt P53677) | inactive: 0.079
ANKRD44 isoform 2 (UniProt Q8N8A2) | inactive: 0.465
ANKRD50 (UniProt Q9ULJ7) | inactive: 0.034
AP2S1 (UniProt M0QZ21) | inactive: 0.204
AMN1 (UniProt Q8IY45) | inactive: 0.31
ANGPTL4 (UniProt M0R3A2) | inactive: -0.309
ANAPC16 (UniProt Q96DE5) | inactive: -0.072
AP3D1 isoform 2 (UniProt O14617) | inactive: -0.429

Compound: Cc1cc(Nc2cc(N3CCN(C)CC3)nc(Sc3ccc(NC(=O)C4CC4)cc3)n2)n[nH]1 [tozasertib]
Assay: as above
Method in brief: as §1

Target | log2 fold change
ANKRD13B (UniProt Q86YJ7) | inactive: 0.143
AP4M1 (UniProt O00189) | inactive: 0.044
ANKRD26 (UniProt Q9UPS8) | inactive: 0.09
ANKRD30B (UniProt Q9BXX2) | inactive: -0.005
ANXA6 (UniProt E5RK69) | inactive: -0.266
AMBRA1 isoform 5 (UniProt Q9C0C7) | inactive: -0.055
ANKLE2 (UniProt Q86XL3) | inactive: -0.083
AP1AR (UniProt Q63HQ0) | inactive: 0.092
AMZ2 (UniProt Q86W34) | inactive: -0.04
ALG12 (UniProt Q9BV10) | inactive: -0.043
AKTIP isoform 2 (UniProt Q9H8T0) | inactive: 0.118
ALDOA (UniProt H3BPS8) | inactive: -0.1
ANKRD40 (UniProt Q6AI12) | inactive: 0.249
ALAS1 (UniProt P13196) | inactive: 0.013
ANKH (UniProt Q9HCJ1) | inactive: -0.067
AP1S2 (UniProt P56377) | inactive: -0.088
AP3M2 (UniProt P53677) | inactive: -0.168
ANKRD31 (UniProt Q8N7Z5) | inactive: -0.12
ANKRD44 isoform 2 (UniProt Q8N8A2) | inactive: 0.12
ANKRD50 (UniProt Q9ULJ7) | inactive: 0.114
ANGPTL4 (UniProt M0R3A2) | inactive: 0.108
ANAPC16 (UniProt Q96DE5) | inactive: 0.121

Compound: Cc1ccc(-n2nc(C(C)(C)C)cc2NC(=O)Nc2ccc(OCCN3CCOCC3)c3ccccc23)cc1 [doramapimod]
Assay: as above
Method in brief: as §1

Target | log2 fold change
AP4M1 (UniProt O00189) | inactive: 0.045
ANKRD26 (UniProt Q9UPS8) | inactive: 0.014
ANXA6 (UniProt E5RK69) | inactive: -0.059
AMBRA1 isoform 5 (UniProt Q9C0C7) | inactive: 0.051
ANKLE2 (UniProt Q86XL3) | inactive: 0.016
ALDH3A1 (UniProt P30838) | inactive: 0.015
AP1AR (UniProt Q63HQ0) | inactive: 0.078
AMZ2 (UniProt Q86W34) | inactive: 0
ANKRD40 (UniProt Q6AI12) | inactive: -0.027
ANKH (UniProt Q9HCJ1) | inactive: 0.028
AP1S2 (UniProt P56377) | inactive: 0.162
ANKRD31 (UniProt Q8N7Z5) | inactive: 0.018
ANKRD50 (UniProt Q9ULJ7) | inactive: 0.069
ANAPC16 (UniProt Q96DE5) | inactive: -0.008

Reference: the supplement of paper PMC10849652
